Not every detail of the peptide structures is certain; ends, links or a residue may be inferred. For some assays here: At least one structure is not confirmed: it was looked up by name or label, or the drawing left a doubt. Where a SMILES comes first, the peptide text is derived from it. The star is where a group is joined. C16 diacid = O=C(O)CCCCCCCCCCCCCCC(=O)*
How the values were obtained:
Format in all cases: cell-based
human GIP receptor [1] = molecular target: T1, human GIP receptor (Homo sapiens, UniProt P48546); experiment: cAMP accumulation, antagonism (DiscoveRx HitHunter cAMP XS assay); set-up: host or cells: COS-7 (transient, calcium phosphate; pCMV-Script vector)
T1 sequence (P48546 22-466): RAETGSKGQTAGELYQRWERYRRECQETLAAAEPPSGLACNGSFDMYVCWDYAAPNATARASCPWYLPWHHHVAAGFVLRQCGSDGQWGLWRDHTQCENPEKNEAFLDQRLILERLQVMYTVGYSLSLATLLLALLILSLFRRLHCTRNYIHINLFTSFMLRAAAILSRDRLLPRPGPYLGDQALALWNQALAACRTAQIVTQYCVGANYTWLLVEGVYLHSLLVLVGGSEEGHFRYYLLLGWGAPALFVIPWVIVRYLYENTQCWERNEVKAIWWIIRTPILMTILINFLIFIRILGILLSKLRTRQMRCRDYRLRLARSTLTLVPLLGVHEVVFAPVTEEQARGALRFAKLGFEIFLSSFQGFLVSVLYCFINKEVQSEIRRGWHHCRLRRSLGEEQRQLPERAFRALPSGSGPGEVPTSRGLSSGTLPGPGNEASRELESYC
Description: Transient transfected COS-7 cells expressing the human GIP receptor were seeded in white 96-well plates with a density of 3.5*10^4/well. The day after, the cells were washed twice with Hepes buffered saline (HBS) buffer and incubated with HBS and 1 mM 3-isobutyl-1-methylxanthine (IBMX) for 30 min at 37° C. To test for agonistic properties, ligands were added and incubated for 30 min at 37° C. In order to test for antagonistic properties, the cells were preincubated with the antagonists for 10 min prior to the addition of the agonist and subsequent incubated for 20 additional min. The HitHunter™ cAMP XS assay (DiscoveRx) was carried out according to the manufacturer's instructions.
In order to develop a GIP receptor antagonist with improved antagonistic properties, individual amino acid substitutions were conducted on GIP(3-30)NH2 and in particular at positions: 16, 18, 30 or 3, 16, 18, 30. The obtained peptides were lipidated at position 18 directly or via a linker. Both the agonistic and antagonistic profiles of the compounds were tested in cAMP accumulation experiments done in transiently transfected COS-7 cells expressing the human GIP receptor. To investigate if these mutated analogues still retained their antagonistic properties, their ability to inhibit a GIP-mediated cAMP response corresponding to 50-80% of maximum activation was examined.

Amino acid sequences for entries named in this document (tags omitted). Residues count along the entry.
UniProt P47872, 23-440, species assumed: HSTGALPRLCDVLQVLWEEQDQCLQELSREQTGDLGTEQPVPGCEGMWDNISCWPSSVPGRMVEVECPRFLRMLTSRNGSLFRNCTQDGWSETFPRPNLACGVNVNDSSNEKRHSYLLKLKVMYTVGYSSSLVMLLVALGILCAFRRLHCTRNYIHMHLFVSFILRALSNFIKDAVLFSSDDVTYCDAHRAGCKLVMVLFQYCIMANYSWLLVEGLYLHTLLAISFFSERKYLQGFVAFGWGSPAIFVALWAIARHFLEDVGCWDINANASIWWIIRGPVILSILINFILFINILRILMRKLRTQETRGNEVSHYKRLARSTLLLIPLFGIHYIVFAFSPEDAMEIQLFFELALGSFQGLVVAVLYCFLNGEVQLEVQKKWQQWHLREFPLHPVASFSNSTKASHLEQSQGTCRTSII
UniProt P47871, 26-477, species assumed: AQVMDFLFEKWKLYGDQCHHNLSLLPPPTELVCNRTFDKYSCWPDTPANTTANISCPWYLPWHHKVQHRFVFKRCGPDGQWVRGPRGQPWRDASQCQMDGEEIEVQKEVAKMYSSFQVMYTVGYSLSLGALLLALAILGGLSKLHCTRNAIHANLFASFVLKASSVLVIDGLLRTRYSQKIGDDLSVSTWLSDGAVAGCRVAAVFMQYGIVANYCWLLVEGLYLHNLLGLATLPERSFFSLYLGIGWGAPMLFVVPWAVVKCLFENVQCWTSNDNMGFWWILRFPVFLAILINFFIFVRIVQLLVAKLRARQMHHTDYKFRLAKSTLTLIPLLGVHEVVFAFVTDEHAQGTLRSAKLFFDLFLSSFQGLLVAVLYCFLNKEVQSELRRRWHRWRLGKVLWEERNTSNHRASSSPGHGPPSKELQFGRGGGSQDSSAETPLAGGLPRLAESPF
UniProt P43220, 24-463, species assumed: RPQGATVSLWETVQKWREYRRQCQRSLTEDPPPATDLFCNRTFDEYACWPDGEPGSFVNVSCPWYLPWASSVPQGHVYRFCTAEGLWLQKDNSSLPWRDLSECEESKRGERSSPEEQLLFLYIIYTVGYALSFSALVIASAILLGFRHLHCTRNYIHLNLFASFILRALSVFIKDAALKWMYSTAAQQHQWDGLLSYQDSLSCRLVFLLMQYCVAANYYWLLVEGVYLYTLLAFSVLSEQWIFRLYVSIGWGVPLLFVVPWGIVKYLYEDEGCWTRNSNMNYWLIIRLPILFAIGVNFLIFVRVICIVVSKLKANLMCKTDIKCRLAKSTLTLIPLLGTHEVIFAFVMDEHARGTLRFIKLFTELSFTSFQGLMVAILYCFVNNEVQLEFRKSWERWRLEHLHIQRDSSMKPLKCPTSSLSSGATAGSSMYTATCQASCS

human GIP receptor [2] = molecular target: T1, human GIP receptor; experiment: cAMP antagonism (CisBio cAMP Dynamic 2 HTRF assay); set-up: pCMV-Script vector
Description: The in vitro functional activity of compounds towards human GIP receptor can also be determined in HEK-293 cells transiently expressing the receptor. On the day of the assay, cells were resuspended in HBSS buffer (Gibco, 14025-50) supplemented with 20 mM HEPES (Gibco, 15630-106), 0,1% Pluronic F-68 (Gibco, 24040-032) and 0,1% casein (Sigma, C4765), and plated in 384-well plates at a density of 5000 cells/well. The GIP peptide analogues of the present disclosure were diluted in HBSS buffer supplemented with 20 mM HEPES, 0,1% pluronic, 0,1% casein and 500 uM IBMX. […] The resulting decrease in intracellular cAMP was quantitatively determined using the CisBio cAMP Dynamic 2 HTRF Assay Kit. The assay is based on a competition between native cAMP produced by cells and cAMP labeled with the dye d2 for binding to a cryptate labeled antibody. The specific signal (i.e. energy transfer signal) is inversely proportional to the concentration of cAMP in the sample.
The cAMP-d2 conjugate and the antibody anti-cAMP-Cryptate, both diluted in lysis buffer provided in the kit, were added to the cells according to the manufacturer's protocol. The resulting competitive assay was incubated for 60 minutes at room temperature, and the signal was detected by using a PerkinElmer Envision® instrument with excitation at 320 nm and emission at 665 nm and 620 nm. The HTRF ratio (emission at 665 nm/620 nm*10,000) is inversely proportional to the amount of cAMP present and is converted to nM cAMP per well using a cAMP standard curve. The dose-response curves were fitted using the non-linear regression analysis (four-logistic parameter equation) in GraphPad Prism, whereby pIC50 values were estimated.

GLP2 receptor (GLP2R) = molecular target: T2, GLP2 receptor (GLP2R) (Homo sapiens, UniProt O95838); experiment: cAMP assay - selectivity, antagonism at GLP2 receptor; conditions: Table 3B; COS-7 cells; agonist GLP2
T2 construct: expressed in transfected cells; host or cells: COS-7 (transient)
T2 sequence (O95838 1-553): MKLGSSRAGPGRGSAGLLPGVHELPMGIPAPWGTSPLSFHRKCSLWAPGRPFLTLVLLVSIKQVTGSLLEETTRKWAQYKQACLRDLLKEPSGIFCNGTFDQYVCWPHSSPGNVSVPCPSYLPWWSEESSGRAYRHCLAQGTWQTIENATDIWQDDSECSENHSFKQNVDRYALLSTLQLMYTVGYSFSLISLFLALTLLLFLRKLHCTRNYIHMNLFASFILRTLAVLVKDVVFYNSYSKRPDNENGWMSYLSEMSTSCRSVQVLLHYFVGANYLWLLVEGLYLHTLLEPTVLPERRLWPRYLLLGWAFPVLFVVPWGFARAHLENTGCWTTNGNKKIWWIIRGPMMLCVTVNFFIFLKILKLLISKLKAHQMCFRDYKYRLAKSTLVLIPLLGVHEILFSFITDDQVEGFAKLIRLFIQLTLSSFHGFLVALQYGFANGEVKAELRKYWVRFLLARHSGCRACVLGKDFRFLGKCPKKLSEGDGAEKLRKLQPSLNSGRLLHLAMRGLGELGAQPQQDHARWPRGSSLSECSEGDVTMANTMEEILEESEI
Description: (§1) Transient transfected COS-7 cells expressing the either of the GLP1 receptor (GLP1R), GLP2 receptor (GLP2R), glucagon receptor (GcgR) or secretin receptor (SCTR) were seeded in white 96-well plates with a density of 3.5*10^4/well. The day after, the cells were washed twice with Hepes buffered saline (HBS) buffer and incubated with HBS and 1 mM 3-isobutyl-1-methylxanthine (IBMX) for 30 min at 37° C. To test for agonistic properties, ligands were added and incubated for 30 min at 37° C. In order to test for antagonistic properties, the cells were preincubated with the antagonists for 10 min prior to the addition the natural agonist for the expressed receptor (GLP1 for GLP1R expressing cells, GLP2 for GLP2R expressing cells, glucagon for the GcgR and secretin for the SCTR) and subsequent incubated for 20 additional min. […] The HitHunter™ cAMP XS assay (DiscoveRx) was carried out according to the manufacturer's instructions.

secretin receptor (SCTR) = molecular target: T3, secretin receptor (SCTR) (Homo sapiens, UniProt P47872); experiment: cAMP assay - selectivity, antagonism at secretin receptor; conditions: Table 3B; COS-7 cells; agonist secretin
T3 construct: expressed in transfected cells; host or cells: COS-7 (transient)
Description: as §1

glucagon receptor (GcgR) = molecular target: T4, glucagon receptor (GcgR) (Homo sapiens, UniProt P47871); experiment: cAMP assay - selectivity, antagonism at glucagon receptor; conditions: Table 3A; selectivity index versus GIPR
T4 construct: expressed in transfected cells; host or cells: COS-7 (transient)
Description: as §1

GLP1 receptor (GLP1R) = molecular target: T5, GLP1 receptor (GLP1R) (Homo sapiens, UniProt P43220); experiment: cAMP assay - selectivity, antagonism at GLP1 receptor; conditions: Table 3A
T5 construct: expressed in transfected cells; host or cells: COS-7 (transient)
Description: as §1

[3] = read-out: cAMP antagonism, nM (IC50), Table 1B, DiscoveRx, transiently transfected COS-7 cells
[4] = read-out: cAMP antagonism, nM (IC50), Table 1C, CisBio, HEK-293 cells, agonist GIP1-42 at EC50
[5] = read-out: IC50-value (GIPR antagonism), Examples 1 and 2, values of Tables 1B and 2

Compound	IC50 (human GIP receptor [1]; [3]) [nM]	IC50 (human GIP receptor [2]; [4]) [nM]	GLP-2R, Antagonism (GLP2 receptor (GLP2R))	Secretin R, Antagonism (secretin receptor (SCTR))	IC50 (human GIP receptor [1]; read-out: GIPR, Antagonism, Table 3A/3B, DiscoveRx, COS-7 cells) [nM]	IC50 (human GIP receptor [1]; [5]) [nM]	Glucagon R, Antagonism, index (glucagon receptor (GcgR))	IC50 (human GIP receptor [2]; read-out: GIPR, Antagonism, Table 3C, CisBio assay) [nM]	GLP-1R, Antagonism, log (IC50) (GLP1 receptor (GLP1R); COS-7 cells, agonist GLP1 at 50-80% of maximal cAMP)	GLP-1R, Antagonism, index (GLP1 receptor (GLP1R); selectivity index versus GIPR)
CC[C@H](C)[C@H](NC(=O)[C@H](CO)NC(=O)[C@H](Cc1ccc(O)cc1)NC(=O)[C@H](CC(=O)O)NC(=O)[C@H](CO)NC(=O)[C@@H](NC(=O)[C@H](Cc1ccccc1)NC(=O)[C@@H](N)[C@@H](C)O)[C@@H](C)CC)C(=O)N[C@@H](C)C(=O)N[C@@H](CC(C)C)C(=O)N[C@@H](CC(=O)O)C(=O)N[C@@H](CCCNC(=N)N)C(=O)N[C@H](C(=O)N[C@@H](CCCCNC(=O)CC[C@H](NC(=O)COCCOCCNC(=O)CCCCCCCCCCCCCCC(=O)O)C(=O)O)C(=O)N[C@@H](CCC(N)=O)C(=O)N[C@@H](CCC(N)=O)C(=O)N[C@@H](CC(=O)O)C(=O)N[C@@H](Cc1ccccc1)C(=O)N[C@H](C(=O)N[C@@H](CC(N)=O)C(=O)N[C@@H](Cc1c[nH]c2ccccc12)C(=O)N[C@@H](CC(C)C)C(=O)N[C@@H](CC(C)C)C(=O)N[C@@H](C)C(=O)N[C@@H](CCC(N)=O)C(=O)N[C@@H](CCCNC(=N)N)C(N)=O)C(C)C)[C@@H](C)CC [AT234] (HELM PEPTIDE1{T.F.I.S.D.Y.S.I.A.L.D.R.I.K.Q.Q.D.F.V.N.W.L.L.A.Q.R.[am]}|PEPTIDE2{[O=C(O)CCCCCCCCCCCCCCC(=O)[*:2]].[O=C(COCCOCCN[*:1])[*:2]].[gGlu]}$PEPTIDE1,PEPTIDE2,14:R3-3:R2$$$V2.0; N-terminus assumed)	16	39.8	–	–	–	–	–	–	–	–
CC[C@H](C)[C@H](NC(=O)[C@H](CO)NC(=O)[C@H](Cc1ccc(O)cc1)NC(=O)[C@H](CC(=O)O)NC(=O)[C@H](CO)NC(=O)[C@@H](NC(=O)[C@H](Cc1ccccc1)NC(=O)[C@@H](NC(=O)CNC(=O)CN)[C@@H](C)O)[C@@H](C)CC)C(=O)N[C@@H](C)C(=O)N[C@@H](CCSC)C(=O)N[C@@H](CC(=O)O)C(=O)N[C@@H](CCCNC(=N)N)C(=O)N[C@H](C(=O)N[C@@H](CCCCNC(=O)CCCCCCCCCCCCCCC(=O)O)C(=O)N[C@@H](CCC(N)=O)C(=O)N[C@@H](CCC(N)=O)C(=O)N[C@@H](CC(=O)O)C(=O)N[C@@H](Cc1ccccc1)C(=O)N[C@H](C(=O)N[C@@H](CC(N)=O)C(=O)N[C@@H](Cc1c[nH]c2ccccc12)C(=O)N[C@@H](CC(C)C)C(=O)N[C@@H](CC(C)C)C(=O)N[C@@H](C)C(=O)N[C@@H](CCC(N)=O)C(=O)N[C@@H](CCCNC(=N)N)C(=O)O)C(C)C)[C@@H](C)CC [AT257] (H-GGTFISDYSIAMDRIK(C16 diacid)QQDFVNWLLAQR-OH; N-terminus assumed)	21	136	No antagonism	No antagonism	21	21	1	136	−5.3	256
CC[C@H](C)[C@H](NC(=O)[C@H](CO)NC(=O)[C@H](Cc1ccc(O)cc1)NC(=O)[C@H](CC(=O)O)NC(=O)[C@H](CO)NC(=O)[C@@H](NC(=O)[C@H](Cc1ccccc1)NC(=O)[C@@H](NC(=O)CNC(=O)[C@@H](N)CCC(=O)O)[C@@H](C)O)[C@@H](C)CC)C(=O)N[C@@H](C)C(=O)N[C@@H](CCSC)C(=O)N[C@@H](CC(=O)O)C(=O)N[C@@H](CCCCN)C(=O)N[C@H](C(=O)N[C@@H](CCCCNC(=O)CCCCCCCCCCCCCCC(=O)O)C(=O)N[C@@H](CCC(N)=O)C(=O)N[C@@H](CCC(N)=O)C(=O)N[C@@H](CC(=O)O)C(=O)N[C@@H](Cc1ccccc1)C(=O)N[C@H](C(=O)N[C@@H](CC(N)=O)C(=O)N[C@@H](Cc1c[nH]c2ccccc12)C(=O)N[C@@H](CC(C)C)C(=O)N[C@@H](CC(C)C)C(=O)N[C@@H](C)C(=O)N[C@@H](CCC(N)=O)C(=O)N[C@@H](CCC(=O)O)C(N)=O)C(C)C)[C@@H](C)CC [AT477] (H-EGTFISDYSIAMDKIK(C16 diacid)QQDFVNWLLAQE-NH2; N-terminus assumed)	–	7.94	–	–	–	2	–	–	–	–
